According to PubChem BioAssay AID1487 (National Center for Advancing Translational Sciences (NCATS), 2009):
The other results are listed elsewhere or left out. The main result of the screen is listed elsewhere. These columns were measured beside it and carry no call. The list favours compounds with an active or inconclusive main result. The note in brackets gives the kind of curve behind each potency; many fits are weak.

Assay: qHTS Assay for Modulators of Lamin A Splicing
Details: HeLa LMNA splicing GFP/RFP minigene ratio, 48 h
Summary of the method: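 S3 HeLa cells stably expressing lamin A-EGFP splicing minigene plus DsRed2, 600 cells/well, 48 h compound exposure at 37C. Laser-scanning cytometry; analysed as GFP (500-530 nm)/RFP (575-640 nm) total intensity ratio; 0.5% DMSO vehicle.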

[1] = measured here: RFP viability control channel
[2] = measured here: GFP splicing reporter channel

Row | Structure (SMILES) | AC50 [1] | AC50 [2]
1 | Cc1cc(C)c[n+](C2=C([O-])c3ccccc3C(=O)/C2=N\S(=O)(=O)c2cccs2)c1 | 5.62 µM [rising, single point] | –
2 | c1ccc(Nc2nc(N3CCCC3)nc(N3CCCC3)n2)cc1 | 28.2 µM [rising, single point] | –
3 | Cc1ccc(S(=O)(=O)/N=C/N(C)C)cc1 | 2.24 µM [rising, partial curve, poor fit] | –
4 | Cc1ccc(/C=C/C(=O)N2CCC(Cc3ccccc3)CC2)cc1 | 31.6 µM [rising, partial curve] | 35.5 µM [rising, single point]
5 | CCOC(=O)c1c(CN(C)C)n(-c2ccccc2)c2cc(Br)c(OC)cc12 | 20 µM [rising, partial curve] | 15.8 µM [rising, partial curve, poor fit]
6 | c1ccc(Nc2nnc(SCc3cccc4ccccc34)s2)cc1 | 31.6 µM [rising, single point] | –
7 | Cc1ccc(CN2CCN(/N=C/c3cccnc3)CC2)c(C)c1 | 35.5 µM [rising, single point] | –
8 | CC1(C)OC(C)(C)/C(=C/Nc2ccccc2)C1=O | 31.6 µM [rising, single point] | 25.1 µM [rising, single point]
9 | COc1ccccc1CC(=O)Nc1ccc(Cl)cc1C(=O)O | – | 35.5 µM [falling, single point]
10 | O=c1c2cc(NC(=S)NCCCN3CCC(Cc4ccccc4)CC3)ccc2nc2n1CCCCC2 | – | 22.4 µM [falling, partial curve, poor fit]
11 | Cc1oc2c(c1C(=O)Nc1cccc3ccccc13)CCCC2 | 8.91 µM [rising, partial curve, poor fit] | –
12 | CCOc1ccc(OCC)c(NC(=O)CN2CCC(NC(=O)c3cccc(F)c3)CC2)c1 | 25.1 µM [rising, single point] | 31.6 µM [rising, single point]
13 | CC(=O)Nc1ccc(S(=O)(=O)NC(C(=O)O)C2=CCC=CC2)cc1 (configuration not stated) | 3.16 µM [falling, single point] | 4.47 µM [falling, single point]
14 | COc1ccc(OCC(=O)OCc2cc(=O)n3nc(C4CC4)sc3n2)cc1 | 0.282 µM [falling, full curve, poor fit] | –
15 | Cc1cccc(C)c1NC(=O)CN(C)CC(=O)Nc1cc(Cl)ccc1C#N | 28.2 µM [rising, single point] | 25.1 µM [rising, single point]
16 | O=C(Nc1nc2n(n1)C(c1ccc(Cl)cc1)CC(c1ccc(Cl)cc1)N2)c1ccco1 (configuration not stated) | 35.5 µM [rising, single point] | –
17 | CC(=O)Nc1ccc(-c2csc(NC(=O)C3CCN(S(=O)(=O)c4cccs4)CC3)n2)cc1 | – | 0.00501 µM [falling, full curve, poor fit]
18 | CCC(C)NC(=O)c1ccc2nc(CCc3ccccc3)oc2c1 (configuration not stated) | 0.00316 µM [falling, full curve, poor fit] | –

Row | Structure (SMILES) | AC50 [1] | AC50 [2]
19 | CC(C)COc1ccc(C(=O)Nc2ccc(SC(F)F)cc2)cc1 | 5.62 µM [rising, partial curve] | –
20 | COc1ccc(C2=Nn3c(nnc3C3CCCCC3)SC2)cc1OC | 31.6 µM [rising, single point] | –
21 | CCOc1ccc(S(=O)(=O)c2c(C(=O)c3ccc(C)cc3)cnc3cc4c(cc23)OCCO4)cc1 | 3.98 µM [rising, single point] | –
22 | Cc1ccc(SCC(=O)NC(=O)NCc2ccccc2)c(C)c1 | 35.5 µM [rising, single point] | 31.6 µM [rising, single point]
23 | CCCCc1ccc(S(=O)(=O)N2CCN(C(=O)c3ccco3)CC2)cc1 | 20 µM [rising, partial curve] | 12.6 µM [rising, single point]
24 | CCOC(=O)C(=O)c1csc(NC(=O)CCSc2ccc(C)cc2)n1 | – | 0.01 µM [rising, partial curve, poor fit]
25 | Cc1cc2cc(CNC(=S)Nc3ccc(OC(F)(F)F)cc3)ccc2n1C | 31.6 µM [rising, single point] | 31.6 µM [rising, single point]
26 | CC(C)CCNC(=O)C(c1ccc(O)cc1)N(Cc1cccs1)C(=O)C1COc2ccccc2O1 (configuration not stated) | 31.6 µM [falling, single point] | 35.5 µM [falling, single point]
27 | COC(=O)c1ccc2c(c1)NC(=O)C(N1CCCCC1)S2 (configuration not stated) | 20 µM [rising, partial curve] | 8.91 µM [rising, partial curve, poor fit]
28 | CCn1c(CN2CCCCCC2=O)nnc1SCc1cnc(-c2ccccc2)s1 | 17.8 µM [rising, single point] | –
29 | Cc1cc(/C=N/n2c(COc3ccccc3C)nc3ccccc3c2=O)c(O)c([N+](=O)[O-])c1 | – | 0.00447 µM [falling, full curve, poor fit]
30 | Cc1ccc(NS(=O)(=O)c2cc3[nH]c(=O)c(=O)[nH]c3cc2C)cc1N(C)C | 0.158 µM [rising, full curve, poor fit] | –
31 | Cc1ccc(C)c(NC(=O)CSc2nnc(-c3cc4occc4n3C)n2-c2ccccc2C)c1 | – | 0.0891 µM [falling, full curve, poor fit]
32 | CCCCn1c(SCC(=O)Nc2ccc(OCC)cc2)nc2ccsc2c1=O | 2.82 µM [falling, full curve, poor fit] | 5.62 µM [falling, single point]
33 | CCc1ccc(NC(=O)CN2CCN(C3CCCCC3)C(=O)C2=O)cc1 | 10 µM [rising, partial curve] | –
34 | Cc1ccc(Oc2cc(NC(=O)CCCn3nc(C)c([N+](=O)[O-])c3C)cc([N+](=O)[O-])c2)cc1 | 20 µM [rising, single point] | –
35 | C=CCN1C(=O)CSC1=Nc1ccc(O)cc1 | 12.6 µM [rising, single point] | –

Two consecutive compounds out of the list so far:
Row | Structure (SMILES) | AC50 [1] | AC50 [2]
28 | CCn1c(CN2CCCCCC2=O)nnc1SCc1cnc(-c2ccccc2)s1 | 17.8 µM [rising, single point] | –
29 | Cc1cc(/C=N/n2c(COc3ccccc3C)nc3ccccc3c2=O)c(O)c([N+](=O)[O-])c1 | – | 0.00447 µM [falling, full curve, poor fit]
